Assay: Lens binding by Zone of Inhibition Technique
Conditions: 50 ppm solution, radius of zone

With `[H]/N=C(\N/C(=N/[H])NCCCCCCNC(=N)NC(=N)Nc1ccc(Cl)cc1)Nc1ccc(Cl)cc1` [Chlorhexidine, chlorhexidine gluconate] the “ZONE OF INHIBITION Saline Rinse” value (lens soaked overnight at room temperature, saline rinse) was 7 mm, the “ZONE OF INHIBITION Saline Soak 15 Min.” value (lens soaked overnight, then 15 minutes in isotonic saline) was 8 mm and the “ZONE OF INHIBITION Saline Soak 1 Hour” value (lens soaked overnight, then one hour in isotonic saline) was 7 mm. The “ZONE OF INHIBITION Saline Soak 3 Hours” value (lens soaked overnight, then three hours in isotonic saline) was 5.5 mm.
